The text below walks through data of US20170081401A1 (CLOSED JOINT STOCK COMPANY BIOCAD, published 2017).

Sequences of proteins named here, by UniProt entry; tags and fusion partners are left off. A change or cut given only in a name is not applied to a line headed by its entry. Residues count along the entry.
UniProt Q96F46: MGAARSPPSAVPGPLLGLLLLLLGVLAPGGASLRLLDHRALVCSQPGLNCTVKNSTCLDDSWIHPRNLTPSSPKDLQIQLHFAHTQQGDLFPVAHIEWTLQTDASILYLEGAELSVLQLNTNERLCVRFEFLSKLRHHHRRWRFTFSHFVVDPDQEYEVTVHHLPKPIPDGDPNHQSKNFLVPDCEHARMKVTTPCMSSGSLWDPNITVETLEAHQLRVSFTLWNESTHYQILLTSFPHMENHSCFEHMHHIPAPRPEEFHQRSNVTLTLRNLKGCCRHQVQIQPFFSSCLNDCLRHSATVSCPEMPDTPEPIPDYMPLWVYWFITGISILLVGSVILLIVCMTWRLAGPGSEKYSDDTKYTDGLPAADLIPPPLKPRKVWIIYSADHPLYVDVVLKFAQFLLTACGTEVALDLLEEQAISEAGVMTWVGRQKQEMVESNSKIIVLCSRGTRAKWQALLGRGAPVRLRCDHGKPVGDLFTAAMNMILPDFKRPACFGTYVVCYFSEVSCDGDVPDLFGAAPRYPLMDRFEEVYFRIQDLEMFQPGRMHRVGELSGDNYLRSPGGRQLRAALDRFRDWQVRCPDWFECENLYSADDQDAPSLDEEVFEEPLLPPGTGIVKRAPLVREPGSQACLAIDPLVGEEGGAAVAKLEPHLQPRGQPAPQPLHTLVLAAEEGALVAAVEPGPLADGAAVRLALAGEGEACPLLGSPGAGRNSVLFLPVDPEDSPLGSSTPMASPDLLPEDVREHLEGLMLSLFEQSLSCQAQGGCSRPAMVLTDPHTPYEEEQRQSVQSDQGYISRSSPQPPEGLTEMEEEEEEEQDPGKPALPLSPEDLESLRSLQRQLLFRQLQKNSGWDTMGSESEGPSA
UniProt Q16552, residues 24-155: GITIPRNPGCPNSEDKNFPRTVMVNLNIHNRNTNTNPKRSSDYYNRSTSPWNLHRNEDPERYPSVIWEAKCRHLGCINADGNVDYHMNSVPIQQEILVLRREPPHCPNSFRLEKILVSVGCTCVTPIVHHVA

This test deals with IL-17RA-Fc receptor (R&D Systems) (Homo sapiens (Human)) (UniProt Q96F46). Description: ELISA, coated IL-17RA-Fc 1 ug/ml, IL-17A-His6-Flag 0.4 ug/ml without blocking Fab, detection with anti-FLAG M2 and anti-mouse IgG-HRP, A450. On the technique in general: In an ELISA, binding on a coated surface is turned into a signal by an enzyme label.

These are yes or no findings as the source states them, for the method shown. Some results given as binding are weak or reduced against the parent protein; the word gives no strength.

With “IL-17A-His6-Flag (from UniProt Q16552 24-155) (ligand)”, the binding result is reported as “binds”.
